Results reported in PubChem BioAssay AID504444 (National Center for Advancing Translational Sciences (NCATS), 2011).
Out of some 360,000 compounds screened, about 7,500 (2.1%) were called active. This list was built around the results that the source calls inconclusive (neither active nor inactive); the mix of calls is not that of the screen. Calls come from the whole dose curve; as a rule, active = well fitted inhibition curve with a large enough effect; inconclusive = small, poorly fitted or top-dose-only effect, or effect the other way; inactive = flat fitted curve, though single readings scatter. Where the call is inconclusive, the potency comes from a doubtful curve fit.

test: Nrf2 qHTS screen for inhibitors; settings: A549 ARE-Fluc reporter, luciferase luminescence, 18-24 h; series mostly up to 46 µM; note: nearly all actives have a fitted effect of over 60% in size
Outline: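 Nrf2 function is reported as luminescence of an ARE-controlled luciferase in A549 cells. Compounds were tested at several concentrations, and a CellTiter-Fluor read on the same wells flagged cytotoxicity.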
Potency is the fitted concentration of half-maximal effect.

| SMILES | Potency |
| --- | --- |
| O=C(NCCc1ccccc1)[C@@H]1CC=C[C@@H]2CCN(Cc3ccc(Cl)c(Cl)c3)C(=O)[C@@H]21 | inconclusive: 29.1 µM [falling, single point] |
| CN(C(=O)Oc1ccc(C(C)(C)C)cc1)c1ccccc1 | inconclusive: 29.1 µM [activator, single point] |
| COC(=O)C1=C(c2ccc(S(C)(=O)=O)cc2)C[C@@H]2CC[C@H]1N2C(=O)NCc1ccc(C(F)(F)F)cc1 | inactive |
| COc1ccc(CC(=O)N2CCN(C)CC2)cc1 | inactive |
| O=c1[nH]c(=O)n(C2CCCCCC2)c(O)c1C=NCC1CCCO1 (stereo not drawn) | inconclusive: 6.51 µM [activator, partial curve, poor fit] |
| COc1ccc(N2CC2c2ccncc2)cc1 (stereo not drawn) | inconclusive: 0.259 µM [activator, full curve, poor fit] |
| O=C1Nc2ccccc2/C1=C/c1nc2ccccc2c(=O)n1-c1ccc(O)cc1 | inconclusive: 16.4 µM [falling, partial curve, poor fit] |
| c1ccc2c(c1)Nc1ccccc1S2 | inactive |
| CCN(C[C@H]1N[C@@](C)(C(=O)OC)[C@H]2C(=O)N(Cc3ccccc3)C(=O)[C@@H]12)S(=O)(=O)c1ccc(C(C)(C)C)cc1 | inconclusive: 32.6 µM [falling, single point] |
| CC12CCC(=O)C=C1C=CC1C2CCC2(C)C(O)CCC12 (stereo not drawn) | inconclusive: 4.11 µM [falling, partial curve, poor fit] |
| COC(=O)C1=C(c2ccc(-c3ccccc3)c(F)c2)C[C@@H]2CC[C@H]1N2C(=O)NC1CCCCC1 | active: 18.4 µM |
| CC(C)(C)C(O)C(Oc1ccc(Cl)cc1)n1cncn1 (stereo not drawn) | inconclusive: 23.1 µM [falling, partial curve, poor fit] |
| C#CC1(O)C=CC2C3CCC4=CC(=O)CCC4C3CCC21CC (stereo not drawn) | inconclusive: 32.6 µM [falling, single point] |
| C[n+]1c(-c2ccccc2)c2cc(N)ccc2c2ccc(N)cc21 | active: 1.84 µM |
| COc1ccc(CCNCc2ccncc2)cc1OC | inactive |
| Cc1sc2ncnc(SCC(=O)Nc3ccc(S(=O)(=O)N4CCOCC4)cc3)c2c1C | inconclusive: 18.4 µM [falling, single point] |
| O=c1c2ccccc2[se]n1-c1ccccc1 | inactive |
| c1ccc(CCNCc2ccccc2)cc1 | inactive |
| CC(C)n1c(=O)c(C=Nc2ccc(Br)cc2)c(O)n(Cc2ccco2)c1=O | inconclusive: 2.31 µM [falling, partial curve, poor fit] |
| COc1cccc(C2(O)CCN(CC(=O)Nc3nc(C)cs3)CC2)c1 | inactive |
| CC1=CC(=Cc2sc3ccccc3[n+]2C)C=C(C)O1 | inconclusive: 0.58 µM [falling, full curve, poor fit] |
| COc1cc2c3c(c1OC)Oc1ccc(cc1)C[C@H]1c4c(cc(OC)c(OC)c4Oc4ccc(cc4)C[C@@H]3N(C)CC2)CCN1C | inactive |

Entries from the list above containing a carbonyl joined to an NH by a bond outside any ring, in the order listed:

| SMILES | Potency |
| --- | --- |
| O=C(NCCc1ccccc1)[C@@H]1CC=C[C@@H]2CCN(Cc3ccc(Cl)c(Cl)c3)C(=O)[C@@H]21 | inconclusive: 29.1 µM [falling, single point] |
| COC(=O)C1=C(c2ccc(S(C)(=O)=O)cc2)C[C@@H]2CC[C@H]1N2C(=O)NCc1ccc(C(F)(F)F)cc1 | inactive |
| COC(=O)C1=C(c2ccc(-c3ccccc3)c(F)c2)C[C@@H]2CC[C@H]1N2C(=O)NC1CCCCC1 | active: 18.4 µM |
| Cc1sc2ncnc(SCC(=O)Nc3ccc(S(=O)(=O)N4CCOCC4)cc3)c2c1C | inconclusive: 18.4 µM [falling, single point] |
| COc1cccc(C2(O)CCN(CC(=O)Nc3nc(C)cs3)CC2)c1 | inactive |

(list continues)

| SMILES | Potency |
| --- | --- |
| COc1cc2c(c(OC)c1OC)-c1ccc(OC)c(=O)cc1C(NC(C)=O)CC2 (stereo not drawn) | inconclusive: 13 µM [activator, partial curve, poor fit] |
| Cc1nnc(SCc2nc3ccccc3c(=O)n2-c2ccccc2Cl)n1N | inconclusive: 36.6 µM [falling, single point] |
| C/C(=N\N=C(N)N)c1ccccc1 | inconclusive: 29.1 µM [falling, single point] |
| CN(c1ccccc1)S(=O)(=O)c1cccc(C(=O)N2CCN(c3ccccn3)CC2)c1 | inconclusive: 20.6 µM [falling, single point] |
| CCOc1cc(/C=C2\C(=O)NC(=O)N(C)C2=O)cc([N+](=O)[O-])c1O | inconclusive: 18.4 µM [falling, partial curve, poor fit] |
| COC(=O)C1=C(c2ccccc2OCc2ccccc2)C[C@@H]2CC[C@H]1N2C(=O)NCc1ccc(C(F)(F)F)cc1 | active: 16.4 µM |
| O=C1CC(=O)N(c2ccccc2)C(=O)N1c1ccccc1 | inactive |
| O=C(CNC(=O)c1cccs1)OCC(=O)c1ccc([N+](=O)[O-])cc1 | inconclusive: 5.8 µM [activator, partial curve, poor fit] |
| CCOC(=O)C1(CCc2ccccc2)CCN(Cc2ccc3c(c2)OCCO3)CC1 | inconclusive: 29.1 µM [falling, single point] |
| Cc1cc(OCc2ccc([N+](=O)[O-])cc2)c2c3c(c(=O)oc2c1)CCCC3 | inactive |
| O=C(Nc1ccccc1)c1cc([N+](=O)[O-])ccc1N1CCNCC1 | inactive |
| COc1ccc(CNC(=O)c2ccc(C(C)C)cc2)cc1 | inconclusive: 8.2 µM [activator, partial curve] |
| O=c1[nH]c(O)c(C=NC2CCN(Cc3ccccc3)CC2)c(=O)[nH]1 | inconclusive: 11.6 µM [activator, partial curve, poor fit] |
| COC(=O)C1=C(c2ccccc2OCc2ccccc2)C[C@@H]2CC[C@H]1N2C(=O)NCc1cccc(F)c1 | inconclusive: 29.1 µM [falling, single point] |
| COc1cc2cc(C(=O)N3CC(COS(C)(=O)=O)c4ccc(O)cc43)[nH]c2c(OC)c1OC (stereo not drawn) | active: 0.058 µM |
| O=C(COc1ccc(Cl)cc1)N1CCN(Cc2ccccc2)CC1 | inconclusive: 29.1 µM [falling, single point] |
| Cc1cc(C)c(OCC(=O)N2CCN(c3ncc(C(F)(F)F)cc3Cl)CC2)c(C)c1 | inconclusive: 29.1 µM [falling, single point] |
| COC(=O)C1=C(c2ccc(-c3ccccc3)c(F)c2)C[C@@H]2CC[C@H]1N2C(=O)NCc1cccc2ccccc12 | inconclusive: 32.6 µM [falling, single point] |
| O=C(Cn1cnc2ccccc2c1=O)NCc1ccco1 | inconclusive: 6.51 µM [activator, partial curve, poor fit] |
| COc1ccc(C)cc1NC(=O)c1c(C)nn(Cc2ccccc2)c1Cl | inconclusive: 29.1 µM [falling, single point] |
| COC(=O)C1=C(c2ccccc2OCc2ccccc2)C[C@@H]2CC[C@H]1N2C(=O)NCc1ccc(C(C)(C)C)cc1 | active: 20.6 µM |
